PubChem BioAssay AID1053208 | Peter MacCallum Cancer Centre – 2014

Screen: 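Genes whose silencing cuts survival of bone tumour cells only with doxorubicin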 (primary screen)
Cells: mouse osteosarcoma cells, early-passage culture from an engineered mouse model of fibroblastic bone tumour
Reagent: siRNA pool against mouse genes, 40 nM
Time to read-out: about 120 h (48 h before drug, then 72 h with drug)
Challenge: doxorubicin 100 nM for 72 h, roughly 30-40% inhibitory dose
Measurement: 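Luminescent ATP signal taken as viability with or without 100 nM doxorubicin for 72 h; mean of two wells set against non-targeting siRNA and turned into robust z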
Scale: viability z-score with doxorubicin: higher = more viable cells under doxorubicin; viability z-score without drug: higher = more viable cells with knock-down alone
Active means: 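a pool counts as active when its viability z-score with doxorubicin is -2 or below and its z-score without drug lies between -2 and 2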
The whole screen tested about 17,000 reagents; this is a random part of them. Over the whole deposit, 788 (4.7%) are marked active. 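Calls rest on z-score classes alone; an extra cut-off of viability at most 70% of control was not applied to them.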 Further read-outs or replicates are left out here.

Tpp2 (tripeptidyl peptidase II)
- combined z-score class: no change with or without drug
- viability z-score with doxorubicin: 0.11
- viability z-score without drug: 0.84
- Outcome: inactive

Myh3 (myosin, heavy polypeptide 3, skeletal muscle, embryonic)
- combined z-score class: no change with or without drug
- viability z-score with doxorubicin: -0.9
- viability z-score without drug: -0.67
- Outcome: inactive

Defa3 (defensin, alpha, 3)
- combined z-score class: no change with or without drug
- viability z-score with doxorubicin: -0.11
- viability z-score without drug: 1.52
- Outcome: inactive

Rusf1 (RUS family member 1)
- combined z-score class: no change with or without drug
- viability z-score with doxorubicin: -0.22
- viability z-score without drug: 0.17
- Outcome: inactive

Gbe1 (1,4-alpha-glucan branching enzyme 1)
- combined z-score class: no change with or without drug
- viability z-score with doxorubicin: -0.22
- viability z-score without drug: 0.17
- Outcome: inactive

Or6e1 (olfactory receptor family 6 subfamily E member 1)
- combined z-score class: no change with or without drug
- viability z-score with doxorubicin: -0.45
- viability z-score without drug: -0.17
- Outcome: inactive

Dctn1 (dynactin 1)
- combined z-score class: no change with or without drug
- viability z-score with doxorubicin: 1.46
- viability z-score without drug: 1.18
- Outcome: inactive

Fev (FEV transcription factor, ETS family member)
- combined z-score class: no change with or without drug
- viability z-score with doxorubicin: -0.22
- viability z-score without drug: -0.17
- Outcome: inactive

Optc (opticin)
- combined z-score class: high cell count without drug only
- viability z-score with doxorubicin: 0.79
- viability z-score without drug: 2.19
- Outcome: inactive

Foxh1 (forkhead box H1)
- combined z-score class: no change with or without drug
- viability z-score with doxorubicin: 0.67
- viability z-score without drug: 0.84
- Outcome: inactive

Cmah (cytidine monophospho-N-acetylneuraminic acid hydroxylase)
- combined z-score class: no change with or without drug
- viability z-score with doxorubicin: -1.57
- viability z-score without drug: 0.17
- Outcome: inactive

A930002I21Rik (RIKEN cDNA A930002I21 gene)
- combined z-score class: no change with or without drug
- viability z-score with doxorubicin: 1.69
- viability z-score without drug: 1.18
- Outcome: inactive

Chmp2a (charged multivesicular body protein 2A)
- combined z-score class: low cell count with and without drug
- viability z-score with doxorubicin: -8.32
- viability z-score without drug: -8.43
- Outcome: inactive

Pcdhb21 (protocadherin beta 21)
- combined z-score class: no change with or without drug
- viability z-score with doxorubicin: -1.24
- viability z-score without drug: 0.17
- Outcome: inactive

Eral1 (Era like 12S mitochondrial rRNA chaperone 1)
- combined z-score class: no change with or without drug
- viability z-score with doxorubicin: -0.22
- viability z-score without drug: 0.17
- Outcome: inactive

Cnot6 (CCR4-NOT transcription complex, subunit 6)
- combined z-score class: no change with or without drug
- viability z-score with doxorubicin: 0
- viability z-score without drug: -0.67
- Outcome: inactive

Snu13 (SNU13 homolog, small nuclear ribonucleoprotein (U4/U6.U5))
- combined z-score class: low cell count with doxorubicin only
- viability z-score with doxorubicin: -2.36
- viability z-score without drug: -1.52
- Outcome: active

Adgre4 (adhesion G protein-coupled receptor E4)
- combined z-score class: no change with or without drug
- viability z-score with doxorubicin: -0.22
- viability z-score without drug: 0.84
- Outcome: inactive

Vbp1 (von Hippel-Lindau binding protein 1)
- combined z-score class: no change with or without drug
- viability z-score with doxorubicin: -0.45
- viability z-score without drug: 0.34
- Outcome: inactive

Zfp661 (zinc finger protein 661)
- combined z-score class: no change with or without drug
- viability z-score with doxorubicin: 0
- viability z-score without drug: 0.51
- Outcome: inactive

Cwh43 (cell wall biogenesis 43 C-terminal homolog)
- combined z-score class: no change with or without drug
- viability z-score with doxorubicin: 0.34
- viability z-score without drug: 1.01
- Outcome: inactive

Gngt2
- combined z-score class: no change with or without drug
- viability z-score with doxorubicin: -0.9
- viability z-score without drug: -0.17
- Outcome: inactive

Nek7 (NIMA (never in mitosis gene a)-related expressed kinase 7)
- combined z-score class: no change with or without drug
- viability z-score with doxorubicin: 0
- viability z-score without drug: 0.34
- Outcome: inactive

Slfn2 (schlafen 2)
- combined z-score class: no change with or without drug
- viability z-score with doxorubicin: 0.22
- viability z-score without drug: -0.17
- Outcome: inactive

Rln3 (relaxin 3)
- combined z-score class: no change with or without drug
- viability z-score with doxorubicin: -0.45
- viability z-score without drug: 0.34
- Outcome: inactive

Rasgrp3 (RAS, guanyl releasing protein 3)
- combined z-score class: no change with or without drug
- viability z-score with doxorubicin: -0.79
- viability z-score without drug: -0.51
- Outcome: inactive

Prpf8 (pre-mRNA processing factor 8)
- combined z-score class: no change with or without drug
- viability z-score with doxorubicin: -0.45
- viability z-score without drug: -0.84
- Outcome: inactive

Kmt5b (lysine methyltransferase 5B)
- combined z-score class: no change with or without drug
- viability z-score with doxorubicin: -0.45
- viability z-score without drug: 0.17
- Outcome: inactive

Rangap1 (RAN GTPase activating protein 1)
- combined z-score class: no change with or without drug
- viability z-score with doxorubicin: 1.12
- viability z-score without drug: 0.17
- Outcome: inactive

Psmd7 (proteasome (prosome, macropain) 26S subunit, non-ATPase, 7)
- combined z-score class: no change with or without drug
- viability z-score with doxorubicin: 0.45
- viability z-score without drug: -0.84
- Outcome: inactive

Zfp446 (zinc finger protein 446)
- combined z-score class: no change with or without drug
- viability z-score with doxorubicin: -0.45
- viability z-score without drug: 0.17
- Outcome: inactive

Arpp19 (cAMP-regulated phosphoprotein 19)
- combined z-score class: high cell count without drug only
- viability z-score with doxorubicin: 1.8
- viability z-score without drug: 2.02
- Outcome: inactive

Neurod4 (neurogenic differentiation 4)
- combined z-score class: no change with or without drug
- viability z-score with doxorubicin: -1.24
- viability z-score without drug: -0.17
- Outcome: inactive

Cox15 (cytochrome c oxidase assembly protein 15)
- combined z-score class: no change with or without drug
- viability z-score with doxorubicin: 0.11
- viability z-score without drug: -0.84
- Outcome: inactive

Psmb5 (proteasome (prosome, macropain) subunit, beta type 5)
- combined z-score class: low cell count with and without drug
- viability z-score with doxorubicin: -6.52
- viability z-score without drug: -7.25
- Outcome: inactive

Aox3 (aldehyde oxidase 3)
- combined z-score class: no change with or without drug
- viability z-score with doxorubicin: 0.11
- viability z-score without drug: 0.51
- Outcome: inactive

Entries listed so far called active, once more:
Snu13 (SNU13 homolog, small nuclear ribonucleoprotein (U4/U6.U5))
- combined z-score class: low cell count with doxorubicin only
- viability z-score with doxorubicin: -2.36
- viability z-score without drug: -1.52
- Outcome: active
